Experimental findings from publication PMC4605303 are described below.

The chains behind the UniProt entries cited, without tags or fusion partners. Where a name states a change or a piece, a line headed by the entry shows the natural chain unless it says otherwise.
UniProt P49704: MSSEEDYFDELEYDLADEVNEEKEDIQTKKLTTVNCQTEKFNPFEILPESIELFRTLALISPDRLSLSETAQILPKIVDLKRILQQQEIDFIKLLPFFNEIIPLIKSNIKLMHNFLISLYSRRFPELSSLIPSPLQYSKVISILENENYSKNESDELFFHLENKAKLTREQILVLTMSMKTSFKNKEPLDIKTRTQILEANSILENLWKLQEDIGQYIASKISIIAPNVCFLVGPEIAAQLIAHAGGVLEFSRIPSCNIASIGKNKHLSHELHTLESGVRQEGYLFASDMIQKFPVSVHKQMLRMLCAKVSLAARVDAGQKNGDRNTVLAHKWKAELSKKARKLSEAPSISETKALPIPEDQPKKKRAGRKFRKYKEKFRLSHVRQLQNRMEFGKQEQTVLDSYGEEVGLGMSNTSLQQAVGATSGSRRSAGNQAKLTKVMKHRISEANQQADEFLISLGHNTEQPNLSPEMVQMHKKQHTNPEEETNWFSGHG
UniProt Q03940: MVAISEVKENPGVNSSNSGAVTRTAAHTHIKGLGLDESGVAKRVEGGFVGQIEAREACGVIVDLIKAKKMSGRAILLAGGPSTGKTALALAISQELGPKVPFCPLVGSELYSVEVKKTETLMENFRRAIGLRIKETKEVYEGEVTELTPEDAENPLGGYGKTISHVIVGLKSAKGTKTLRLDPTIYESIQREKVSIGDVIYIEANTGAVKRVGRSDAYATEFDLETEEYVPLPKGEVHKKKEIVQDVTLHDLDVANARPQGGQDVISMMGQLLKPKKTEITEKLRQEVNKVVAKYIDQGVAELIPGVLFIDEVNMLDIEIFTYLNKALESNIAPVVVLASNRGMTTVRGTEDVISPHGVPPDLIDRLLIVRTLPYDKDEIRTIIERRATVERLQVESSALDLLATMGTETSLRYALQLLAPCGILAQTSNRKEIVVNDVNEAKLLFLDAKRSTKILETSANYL
UniProt Q12464: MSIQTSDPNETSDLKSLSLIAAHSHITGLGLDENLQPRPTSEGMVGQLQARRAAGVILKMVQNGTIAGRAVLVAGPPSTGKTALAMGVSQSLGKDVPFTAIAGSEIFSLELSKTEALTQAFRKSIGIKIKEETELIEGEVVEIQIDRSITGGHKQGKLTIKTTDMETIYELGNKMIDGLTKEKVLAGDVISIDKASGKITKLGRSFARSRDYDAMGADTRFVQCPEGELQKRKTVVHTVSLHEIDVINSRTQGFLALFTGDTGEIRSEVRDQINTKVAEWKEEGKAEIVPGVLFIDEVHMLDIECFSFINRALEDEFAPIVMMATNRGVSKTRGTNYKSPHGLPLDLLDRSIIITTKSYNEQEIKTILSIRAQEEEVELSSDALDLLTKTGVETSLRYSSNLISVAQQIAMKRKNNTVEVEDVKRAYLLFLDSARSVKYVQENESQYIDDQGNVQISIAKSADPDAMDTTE

These are yes or no findings as the source states them, for the method shown. Binding can be weak; no strength is given.

What all share (test): two-hybrid; yeast Prp31 (wild type and mutants) against Rsa1, Pih1, Rvb1, Rvb2, Hit1; CG1945 mated with Y187, diploids on -Leu-Trp-His plates containing 1.5 mM 3AT; wild-type strains
For assay [1], the target named is yeast Prp31 insertion mutant a.a. 118 (yeast) (UniProt P49704).
Assay [2] addresses yeast Prp31 insertion mutant a.a. 123 (yeast) (UniProt P49704).
Assay [3] concerns the target yeast Prp31 insertion mutant a.a. 227 (yeast) (UniProt P49704).
In assay [4] the target is yeast Prp31 insertion mutant a.a. 92 (yeast) (UniProt P49704).

Take “Rvb1 (yeast homolog of RuvBL1) (from UniProt Q03940 1-463)”: the binding entry in assay [1] is listed as “binds”; in assay [2] it was “binds”; in assay [3], “binds”; in assay [4], “no binding”.
Take “Rvb2 (yeast homolog of RuvBL2) (from UniProt Q12464 1-471)”: the binding entry in assay [1] is “binds”; in assay [2], “binds”; in assay [3], “binds”; in assay [4], “no binding”.

B1: Pih1 (yeast homolog of PIH1D1) (protein, UniProt P38768 1-344)
chain: MADFLLRPIKQRHRNEDKYVSVDAADGSVSKIEPIADFVIKTKLLSANGPEKLQDGRKVFINVCHSPLVPKPEVDFNARIVFPLIIQNEWEIPIITSCYRMDHDKKGQECYVWDCCINSDCSRWICDDIQLREILVEWCLESCEIRDSVVLCRDRIAFPKMKKKGAELPALEVLNDELHQDYKAKMHKIIEEEAGDPMSILRGRNDDGDDNNDPDDGTLPPLFPIENKISGAKIEEIDKNEIAHRNLKQAPAPAPAPHEQQEDVPEYEVKMKRFKGAAYKLRILIENKAPNSKPDRFSPSYNFAENILYINGKLSIPLPRDIVVNAADIKIFHIRKERTLYIYI
As for B1, the binding result in assay [1], in assay [2] and in assay [4] was “no binding” each time.

B2: Rsa1 (yeast homolog of NUFIP) (protein, UniProt Q08932 1-381)
chain: MNYNNFENSKGDGHSRLPKPTYSGTLSDGYDESKIKRQKTDSAFNAAYSPHMYPNSPYYEGSWNTGYTPQLHHVAPHNQYFHPIQPSTQYNYTSPPNYTENYIPPVHQNISYAPALNLQKWPSSYCENTQALKNDKDYQTSISYEDVAIPTVKEIQLIEKNRGKDTFMNEISPVPSSKDQASAEPTEIPRKDPELANSNAEDDHNNLGLEDDDRDEQLESEGLGKVVLVPGTSIALITDEDVKKWREERKKMWLLKISNNKQKHMQEMGIKEDELKSQPSIFKESRKEKQFIQSIQNQVQRGNPKIDLNLKLIQREFANENSQLLDFIRELGDVGLLEYELSQQEKDVLFGSSEDNNKNHYKPNYKNRKPNLSRANFTRNK
On to B2, for which the binding result in assay [1] is “no binding”; in assay [2], “no binding”; in assay [3] it was “binds”; in assay [4], “no binding”.

B3: Hit1 (yeast homolog of ZNHIT3) (protein, UniProt P46973 1-164)
chain: MVSSAVKCGICRGVDGKYKCPKCGVRYCSLKCYKDAAKHVHKESEQPRAGTEANVEVVNNDKIINSSLAMNKTLKTKAFDDIYQNSAELQELLKYNTVKFHLAKVYRILSSTVNDGSSGKMNSDLQKELAVNYLNTLRYGGIHYNEAIEEFCQILLDKLNAVKK
As to B3, the binding entry was “no binding” in assay [1], “no binding” in assay [2], “no binding” in assay [3] and “binds” in assay [4].
